From patent US20190225687A1 (I MAB, published 2019)
No constants are given. Whether binding was seen depends on the method and setting. Some entries that bind do so weakly or less than the wild type.

T1: LAG3 antigen of the Octet RED96 runs (UniProt P18627 23-450, limits assumed)
T1 sequence (looked up): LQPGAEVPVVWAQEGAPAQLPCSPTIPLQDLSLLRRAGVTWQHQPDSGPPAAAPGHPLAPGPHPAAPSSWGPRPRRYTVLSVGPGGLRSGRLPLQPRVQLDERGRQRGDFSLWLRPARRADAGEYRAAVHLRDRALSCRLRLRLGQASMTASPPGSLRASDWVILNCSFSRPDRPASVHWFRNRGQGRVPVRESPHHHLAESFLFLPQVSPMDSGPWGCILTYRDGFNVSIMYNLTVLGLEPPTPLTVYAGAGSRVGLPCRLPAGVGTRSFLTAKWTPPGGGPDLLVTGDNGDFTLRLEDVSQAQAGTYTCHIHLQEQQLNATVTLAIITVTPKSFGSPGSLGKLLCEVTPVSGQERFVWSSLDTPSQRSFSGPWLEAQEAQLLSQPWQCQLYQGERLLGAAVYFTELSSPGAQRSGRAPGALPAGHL


Assays:
[1] = target: T1, LAG3 antigen of the Octet RED96 runs; test: BLI, Octet RED96, full kinetics
[2] = target: T1, LAG3 antigen of the Octet RED96 runs; test: BLI, Octet RED96, affinity ranking

Row | binding [1] | binding [2] | Binder
1 | binds | binds | 147H-14 (antibody, V domains shown) VH: EVQLVQSGAEVKKPGASVKVSCKASGYTFTNYWLGWIKQAPGQGLEWIGDIYPGGDYINYNEKFKGKATLTADTSISTAYMELSRLRSDDTAVYFCARPNLPGDYWGQGTTVTVSS VL: DIVMTQSPLSLPVTPGEPASISCRSSKSLLHSNGITYLYWYLQKPGQSPQLLIYQVSNLASGVPDRFSGSGSGTDFTLKISRVEAEDVGVYYCAQNLELPWTFGGGTKVEIK
2 | binds | binds | 147H-13 (antibody, V domains shown, also called 147H4-13) VH: EVQLVQSGAEVKKPGASVKVSCKASGYTFTNYWLGWIKQAPGQGLEWIGDIYPGGDYINYNEKFKGKATLTADTSISTAYMELSRLRSDDTAVYYCARPNLPGDYWGQGTTVTVSS VL: DIVMTQSPLSLPVTPGEPASISCRSSKSLLHSNGITYLYWYLQKPGQSPQLLIYQVSNLASGVPDRFSGSGSGTDFTLKISRVEAEDVGVYYCAQNLELPWTFGGGTKVEIK

More lines, now with the values behind:

Row | Binder | binding [1] | binding [2]
3 | 147H-6 (antibody, V domains shown) VH: QVQLVQSGAEVKKPGASVKVSCKASGYTFTNYWLGWIKQAPGQGLEWIGDIYPGGDYINYNEKFKGKATLTADTSISTAYMELSRLRSDDTAVYYCARPNLPGDYWGQGTTVTVSS VL: DIVMTQSPLSLPVTPGEPASISCRSSKSLLHSNGITYLYWYLQKPGQSPQLLIYQVSNLASGVPDRFSGSGSGTDFTLKISRVEAEDVGVYYCAQNLELPWTFGGGTKVEIK | binds | binds
4 | 147H-7 (antibody, V domains shown) VH: QVQLVQSGAEVKKPGASVKVSCKASGYTFTNYWLGWIKQAPGQGLEWIGDIYPGGDYINYNEKFKGKATLTADTSISTAYMELSRLRSDDTAVYFCARPNLPGDYWGQGTTVTVSS VL: DIVMTQSPLSLPVTPGEPASISCRSSKSLLHSNGITYLYWYLQKPGQSPQLLIYQVSNLASGVPDRFSGSGSGTDFTLKISRVEAEDVGVYYCAQNLELPWTFGGGTKVEIK | binds | binds
